Paper PMC9501056
These are yes or no findings as the source states them, for the method shown. Binding seen in cells or lysates may run through a third protein. Binding calls can cover weak binding; strength is not graded here.

T1: BEI (Oryza sativa subsp. indica cv. IR36 (endogenous in developing seeds)) (UniProt Q01401)
T1 sequence: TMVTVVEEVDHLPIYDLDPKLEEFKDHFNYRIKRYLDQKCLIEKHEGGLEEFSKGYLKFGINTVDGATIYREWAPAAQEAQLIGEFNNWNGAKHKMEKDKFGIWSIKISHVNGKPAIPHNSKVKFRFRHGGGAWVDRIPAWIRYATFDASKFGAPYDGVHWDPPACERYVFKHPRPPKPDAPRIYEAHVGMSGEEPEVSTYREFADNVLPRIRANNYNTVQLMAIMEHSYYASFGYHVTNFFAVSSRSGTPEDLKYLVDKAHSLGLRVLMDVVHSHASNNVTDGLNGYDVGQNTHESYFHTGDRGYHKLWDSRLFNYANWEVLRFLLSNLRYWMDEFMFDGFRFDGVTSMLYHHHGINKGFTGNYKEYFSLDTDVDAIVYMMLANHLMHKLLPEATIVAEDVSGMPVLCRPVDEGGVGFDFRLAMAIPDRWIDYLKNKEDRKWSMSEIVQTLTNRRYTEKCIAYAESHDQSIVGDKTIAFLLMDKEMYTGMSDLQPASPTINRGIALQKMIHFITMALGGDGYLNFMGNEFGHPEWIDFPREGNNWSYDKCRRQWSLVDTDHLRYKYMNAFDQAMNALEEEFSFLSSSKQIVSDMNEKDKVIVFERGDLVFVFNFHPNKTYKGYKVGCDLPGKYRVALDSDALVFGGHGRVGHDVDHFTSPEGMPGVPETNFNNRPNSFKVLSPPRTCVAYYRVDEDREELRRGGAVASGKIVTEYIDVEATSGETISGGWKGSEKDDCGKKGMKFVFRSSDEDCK

B1: SSI (enzyme, UniProt A2Y9M4 114-641)
chain: SEQESEIMDVKEQAQAKVTRSVVFVTGEASPYAKSGGLGDVCGSLPIALALRGHRVMVVMPRYMNGALNKNFANAFYTEKHIKIPCFGGEHEVTFFHEYRDSVDWVFVDHPSYHRPGNLYGDNFGAFGDNQFRYTLLCYAACEAPLILELGGYIYGQKCMFVVNDWHASLVPVLLAAKYRPYGVYRDARSVLVIHNLAHQGVEPASTYPDLGLPPEWYGALEWVFPEWARRHALDKGEAVNFLKGAVVTADRIVTVSQGYSWEVTTAEGGQGLNELLSSRKSVLNGIVNGIDINDWNPSTDKFLPYHYSVDDLSGKAKCKAELQEELGLPIRPDVPLIGFIGRLDYQKGIDLIKLAIPDLMRDNIQFVMLGSGDPGFEGWMRSTESGYRDKFRGWVGFSVPVSHRITAGCDILLMPSRFEPCGLNQLYAMQYGTVPVVHGTGGLRDTVENFNPFAEKGEQGTGWAFSPLTIEKMLWALRMAISTYREHKSSWEGLMKRGMSSDFTWDHAASQYEQIFEWAFMDQPYVM
B2: SSIIa (enzyme, UniProt P0C586 17-810)
chain: ASSASRGGPRRGRVVGVAAPPALLYDGRAGRLALRAPPPPRPRPRRRDAGVVRRADDGENEAAVERAGEDDEEEEEFSSGAWQPPRSRRGGVGKVLKRRGTVPPVGRYGSGGDAARVRGAAAPAPAPTQDAASSKNGALLSGRDDDTPASRNGSVVTGADKPAAATPPVTITKLPAPDSPVILPSVDKPQPEFVIPDATAPAPPPPGSNPRSSAPLPKPDNSEFAEDKSAKVVESAPKPKATRSSPIPAVEEETWDFKKYFDLNEPDAAEDGDDDDDWADSDASDSEIDQDDDSGPLAGENVMNVIVVAAECSPWCKTGGLGDVAGALPKALARRGHRVMVVVPRYGDYAEAQDVGIRKYYKAAGQDLEVKYFHAFIDGVDFVFIDAPLFRHRQDDIYGGNRQEIMKRMILFCKAAVEVPWHVPCGGVPYGDGNLVFLANDWHTALLPVYLKAYYRDNGMMQYTRSVLVIHNIAYQGRGPVDEFPYMELPEHYLDHFKLYDPVGGEHANIFGAGLKMADRVVTVSPGYLWELKTTEGGWGLHDIIRENDWKMNGIVNGIDYREWNPEVDVHLQSDGYANYTVASLDSGKPRCKAALQRELGLEVRDDVPLIGFIGRLDGQKGVDIIGDAMPWIAGQDVQLVLLGSGRRDLEVMLQRFEAQHNSKVRGWVGFSVKMAHRITAGADVLVMPSRFEPCGLNQLYAMAYGTVPVVHAVGGLRDTVSAFDPFEDTGLGWTFDRAEPHKLIEALGHCLETYRKYKESWRGLQVRGMSQDLSWDHAAELYEEVLVKAKYQW
B3: BEI (enzyme, UniProt Q01401 65-820)
chain: T1 sequence

What was measured:
[1] = target: T1, BEI (Oryza sativa subsp. indica cv. IR36 (endogenous in developing seeds)); test: co-IP; soluble proteins of developing seeds of WT (IR36) at 10 DAF incubated with isozyme-specific antibodies and protein A magnetic beads; washed with PBS pH 7.4; Western blotting
[2] = target: T1, BEI (Oryza sativa subsp. indica cv. IR36 (endogenous in developing seeds)); test: co-IP; soluble proteins of developing seeds of the be2b mutant at 10 DAF incubated with isozyme-specific antibodies and protein A magnetic beads; washed with PBS pH 7.4; Western blotting
[3] = target: T1, BEI (Oryza sativa subsp. indica cv. IR36 (endogenous in developing seeds)); test: co-IP; soluble proteins of developing seeds of WT (IR36) at 5 DAF incubated with isozyme-specific antibodies and protein A magnetic beads; washed with PBS pH 7.4; Western blotting
[4] = target: BEIIa (Oryza sativa subsp. indica cv. IR36 (endogenous in developing seeds)); test: co-IP; soluble proteins of developing seeds of the be2b mutant at 5 DAF incubated with isozyme-specific antibodies and protein A magnetic beads; washed with PBS pH 7.4; Western blotting
[5] = target: BEIIb (Oryza sativa subsp. indica cv. IR36 (endogenous in developing seeds)); test: co-IP; soluble proteins of developing seeds of WT (IR36) at 10 DAF incubated with isozyme-specific antibodies and protein A magnetic beads; washed with PBS pH 7.4; Western blotting
[6] = target: BEIIa (Oryza sativa subsp. indica cv. IR36 (endogenous in developing seeds)); test: as above
[7] = target: BEIIb (Oryza sativa subsp. indica cv. IR36 (endogenous in developing seeds)); test: co-IP; soluble proteins of developing seeds of WT (IR36) at 5 DAF incubated with isozyme-specific antibodies and protein A magnetic beads; washed with PBS pH 7.4; Western blotting
[8] = target: BEIIa (Oryza sativa subsp. indica cv. IR36 (endogenous in developing seeds)); test: as above
[9] = target: BEIIb (Oryza sativa subsp. indica cv. IR36 (endogenous in developing seeds)); test: co-IP; soluble proteins of developing seeds of WT (IR36) at 15 DAF incubated with isozyme-specific antibodies and protein A magnetic beads; washed with PBS pH 7.4; Western blotting
[10] = target: BEIIa (Oryza sativa subsp. indica cv. IR36 (endogenous in developing seeds)); test: as above
[11] = target: BEIIa (Oryza sativa subsp. indica cv. IR36 (endogenous in developing seeds)); test: co-IP; soluble proteins of developing seeds of the be2b mutant at 10 DAF incubated with isozyme-specific antibodies and protein A magnetic beads; washed with PBS pH 7.4; Western blotting
[12] = target: BEIIa (Oryza sativa subsp. indica cv. IR36 (endogenous in developing seeds)); test: co-IP; soluble proteins of developing seeds of the be2b mutant at 15 DAF incubated with isozyme-specific antibodies and protein A magnetic beads; washed with PBS pH 7.4; Western blotting

Row | Molecule | binding [1] | binding [2] | binding [3] | binding [4] | binding [5] | binding [6] | binding [7] | binding [8] | binding [9] | binding [10] | binding [11] | binding [12]
1 | starch plastidial phosphorylase (enzyme) | binds | binds | binds |  |  |  |  |  |  |  |  | 
2 | BEIIa (enzyme) |  | binds weakly |  |  |  |  |  |  |  |  |  | 
3 | B1 |  |  |  | binds | binds | binds | binds weakly | binds weakly | binds | binds |  | 
4 | B2 |  |  |  | binds | binds | binds weakly | binds weakly | binds weakly | binds | binds | binds weakly | binds weakly
5 | B3 |  |  |  |  | binds | binds | binds weakly | binds weakly | binds weakly | binds weakly | binds weakly | binds weakly
